The assay concerns the target T1, BD-EXO70A1 (Arabidopsis thaliana) (UniProt Q9LZD3).
T1 sequence: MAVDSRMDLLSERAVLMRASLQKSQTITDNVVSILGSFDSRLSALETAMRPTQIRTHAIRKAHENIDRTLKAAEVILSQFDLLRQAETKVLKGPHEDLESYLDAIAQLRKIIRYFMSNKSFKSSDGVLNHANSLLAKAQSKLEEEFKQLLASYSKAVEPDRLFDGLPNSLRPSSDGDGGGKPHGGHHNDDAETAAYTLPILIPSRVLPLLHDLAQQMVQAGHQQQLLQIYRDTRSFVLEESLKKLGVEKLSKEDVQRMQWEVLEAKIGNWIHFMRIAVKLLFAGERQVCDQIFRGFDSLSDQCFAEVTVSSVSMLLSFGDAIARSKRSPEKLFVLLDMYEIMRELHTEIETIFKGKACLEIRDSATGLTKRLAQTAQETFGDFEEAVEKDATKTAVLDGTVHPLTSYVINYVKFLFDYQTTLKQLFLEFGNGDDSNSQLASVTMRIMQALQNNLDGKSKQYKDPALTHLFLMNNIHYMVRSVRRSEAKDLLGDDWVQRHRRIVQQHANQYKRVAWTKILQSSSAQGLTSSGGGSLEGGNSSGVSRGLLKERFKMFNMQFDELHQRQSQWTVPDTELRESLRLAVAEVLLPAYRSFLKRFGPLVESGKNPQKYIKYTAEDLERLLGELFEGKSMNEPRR
Briefly: two-hybrid.

The chains behind the UniProt entries cited, without tags or fusion partners. Where a name states a change or a piece, a line headed by the entry shows the natural chain unless it says otherwise.
UniProt Q9ZSD4: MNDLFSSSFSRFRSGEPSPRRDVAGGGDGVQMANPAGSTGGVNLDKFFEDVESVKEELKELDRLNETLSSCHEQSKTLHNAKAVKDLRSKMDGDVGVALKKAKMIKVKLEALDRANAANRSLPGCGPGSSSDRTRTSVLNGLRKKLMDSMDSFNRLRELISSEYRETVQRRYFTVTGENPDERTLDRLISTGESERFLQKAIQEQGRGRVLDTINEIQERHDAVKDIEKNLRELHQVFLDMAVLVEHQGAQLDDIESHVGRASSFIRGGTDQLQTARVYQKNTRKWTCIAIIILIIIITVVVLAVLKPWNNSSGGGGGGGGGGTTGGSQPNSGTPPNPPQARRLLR

These are yes or no findings as the source states them, for the method shown. Where a sequence is shown, tags or fusion partners need not be part of it.

Experimental findings from publication doi:10.1101/2021.06.20.449050 are described below.

Take “AD-SYP121ΔC (from UniProt Q9ZSD4) (domain or fragment)”: the binding result is on record as “no binding”.
